Laboratory results from publication PMC5675994.

Amino acid sequences for entries named in this document (tags omitted). A change or cut given only in a name is not applied to a line headed by its entry.
UniProt Q07540: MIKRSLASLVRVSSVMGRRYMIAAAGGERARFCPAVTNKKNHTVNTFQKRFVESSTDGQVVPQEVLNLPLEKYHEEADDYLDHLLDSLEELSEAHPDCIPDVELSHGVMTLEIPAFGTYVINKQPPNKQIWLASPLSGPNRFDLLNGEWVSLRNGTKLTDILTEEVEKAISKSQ

T1: Nfs1-His6 (S. cerevisiae) (UniProt P25374)
T1 sequence: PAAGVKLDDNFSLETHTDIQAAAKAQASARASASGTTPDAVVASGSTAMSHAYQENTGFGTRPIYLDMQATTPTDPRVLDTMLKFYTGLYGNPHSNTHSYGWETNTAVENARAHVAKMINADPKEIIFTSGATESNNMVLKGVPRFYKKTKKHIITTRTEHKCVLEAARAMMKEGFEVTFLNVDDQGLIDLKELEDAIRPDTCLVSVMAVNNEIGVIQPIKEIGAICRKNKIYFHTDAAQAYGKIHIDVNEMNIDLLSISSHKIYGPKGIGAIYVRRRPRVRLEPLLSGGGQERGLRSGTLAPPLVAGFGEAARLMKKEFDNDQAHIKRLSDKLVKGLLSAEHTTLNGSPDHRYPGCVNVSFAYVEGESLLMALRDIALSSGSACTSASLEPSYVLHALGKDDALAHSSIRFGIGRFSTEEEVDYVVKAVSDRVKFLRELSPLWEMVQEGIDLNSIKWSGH


Columns and labels:
[1] = biological target: T1, Nfs1-His6 (S. cerevisiae); test: affinity purification with mass spectrometry; Nfs1-His6 held on Ni-NTA superflow agarose from sonicated, cleared lysate of isolated mitochondria of the Gal-Nfs1-His6 yeast strain; 50 mM TrisCl pH 7.5, 80 mM KCl, 10% glycerol, wash 40 mM imidazole, elution 400 mM imidazole; eluate analysed by LC-MS/MS
[2] = biological target: Yfh1-His6 (S. cerevisiae) (UniProt Q07540); test: affinity purification with mass spectrometry; Yfh1-His6 held on Ni-NTA superflow agarose from French-press lysate (108,000xg supernatant) of isolated mitochondria of the Yfh1-His6 yeast strain; 50 mM TrisCl pH 7.5, 80 mM KCl, 10% glycerol, wash 40 mM imidazole with 0.1% Triton X-100, elution 400 mM imidazole; eluate analysed by LC-MS/MS

Binder | binding [1] | binding [2]
Acetolactate synthase catalytic subunit, mitochondrial (protein, UniProt P07342 91-687) GLTGGQIFNEMMSRQNVDTVFGYPGGAILPVYDAIHNSDKFNFVLPKHEQGAGHMAEGYARASGKPGVVLVTSGPGATNVVTPMADAFADGIPMVVFTGQVPTSAIGTDAFQEADVVGISRSCTKWNVMVKSVEELPLRINEAFEIATSGRPGPVLVDLPKDVTAAILRNPIPTKTTLPSNALNQLTSRAQDEFVMQSINKAADLINLAKKPVLYVGAGILNHADGPRLLKELSDRAQIPVTTTLQGLGSFDQEDPKSLDMLGMHGCATANLAVQNADLIIAVGARFDDRVTGNISKFAPEARRAAAEGRGGIIHFEVSPKNINKVVQTQIAVEGDATTNLGKMMSKIFPVKERSEWFAQINKWKKEYPYAYMEETPGSKIKPQTVIKKLSKVANDTGRHVIVTTGVGQHQMWAAQHWTWRNPHTFITSGGLGTMGYGLPAAIGAQVAKPESLVIDIDGDASFNMTLTELSSAVQAGTPVKILILNNEEQGMVTQWQSLFYEHRYSHTHQLNPDFIKLAEAMGLKGLRVKKQEELDAKLKEFVSTKGPVLLEVEVDKKVPVLPMVAGGSGLDEFINFDPEVERQQTELRHKRTGGKH | binds | binds
Cytochrome b-c1 complex subunit 2, mitochondrial (protein, UniProt P07257 17-368) LTVSARDAPTKISTLAVKVHGGSRYATKDGVAHLLNRFNFQNTNTRSALKLVRESELLGGTFKSTLDREYITLKATFLKDDLPYYVNALADVLYKTAFKPHELTESVLPAARYDYAVAEQCPVKSAEDQLYAITFRKGLGNPLLYDGVERVSLQDIKDFADKVYTKENLEVSGENVVEADLKRFVDESLLSTLPAGKSLVSKSEPKFFLGEENRVRFIGDSVAAIGIPVNKASLAQYEVLANYLTSALSELSGLISSAKLDKFTDGGLFTLFVRDQDSAVVSSNIKKIVADLKKGKDLSPAINYTKLKNAVQNESVSSPIELNFDAVKDFKLGKFNYVAVGDVSNLPYLDEL | binds | binds
Dihydrofolate synthetase (protein, UniProt Q12676 1-427) MAIELGLSRITKLLEHLGNPQNSLRVLHIAGTNGKGSVCTYLSSVLQQKSYQIGKFTTPHLVHVTDSITINNKPIPLERYQNIRLQLEALNKSHSLKCTEFELLTCTAFKYFYDVQCQWCVIEVGLGGRLDATNVIPGANKACCGITKISLDHESFLGNTLSEISKEKAGIITEGVPFTVIDGTNEASVINVVKERCKALGSELSVTDSQLNGNMIDTNSWGCFDLAKLPLNGEYQIFNLRVAMGMLDYLQMNELIDITKNEVSTRLAKVDWPGRLYRMDYRFDKVSNRTVPILMDGAHNGSAAVELVKYLRKEYGNQPLTFVMAVTHGKNLEPLLQPLLRPIDQVILTRFNNVEGMPWIHATDPEEIKDFILTQGYTKEIVIENDLHQVLPSLAHVSDEQRRPIVVCGSLYLCGELLRIHNSHLRN | binds | binds
Altered inheritance of mitochondria protein 32 (protein, UniProt Q04689 1-311) MLRITVKTLQQRASFHHSFKHISVPDLHTRAQNDQTNCYCQEINARLPSKTDPLDPHIKLPHRTPNYNKHVLLLSPGDRFAQPWKVAWNHNLDTNTNRPYNAISKLRSHLGGSPGILINAVHLQNEFIPRPKQHDEWLYFFVIPDMKLYVIKETDIEEFASFLDEGAIQAPKLSFQDYLSGKAKASQQVHEVHHRKLTRFQGETFLRDWNLVCGHYKRDAKCGEMGPDIIAAFQDEKLFPENNLALISHIGGHIFAGNVIFYKLFGREKMQNKLDSLWFGKVYPHNLKLLCENLENGKIIDEMYRGGISMN | binds | binds

Further lines, results first:

binding [1] | binding [2] | Binder
binds | binds | Protein ISD11 (protein, UniProt Q6Q560 1-94) MPGFTAPTRRQVLSLYKEFIKNANQFNNYNFREYFLSKTRTTFRKNMNQQDPKVLMNLFKEAKNDLGVLKRQSVISQMYTFDRLVVEPLQGRKH
binds | binds | Uncharacterized WD repeat-containing protein YOL087C (protein, UniProt Q99247 1-1116) MNQLTVSYGLISPDYCTSQDAHILPITKILYPDIPGKNYFLTSGRDGSIILHKNTQLSNEPETAATTIKNDAIRMQVHSDWASDLIHVNMKNSDPSAGDTFISVSHDFSIVLISVNAQLTTWDKKIIGDHDDYIKCIVPIHYEMSNDYELEEQEGGPDNVHDGINNGIVVDEQNNFLFVTGGLDRKIKLWCLSSGPEKMATLLHTFDNAQSNDTGSIYSMSPIIPKYSFDDNQTSRPFDFVAGDCNGDLIFYSCKYRKEVIRIQNAHRTNIKVVRTLDDSTRLISTSSDGVINVWDLNCRHDQTTGALQLPKKIGSWSWDSSIWCVQGTSLDKLYFGDSQGNVMRANLSSYEDAKLTRIFKPDHHHHHHHHHEHEEQNISTTDAKVKKYGGILDIALLPNEKLLFSFCTDSNLNVLDLTNNHFSVNEGGFALTRSSLLTNRRHVITENTKGQMQRWDIVSCELLNTFDSSEGSFDDIVMKYTSKEILSHWCTVSVKVGMLFVKINPKFLKTEVYGSALKDYQVVNNIEINSDERYNLGKIVINSLFNEFISYEVQKDKLLRKKIFSLKKKDLTNSLTLDTGYNSESKKNNKDKKRKSTFKISSTLSIGNTNSSGTPPNSAPATPVMAETIVLEEQPLLQSASDKAIDDSLELVQPLPASKKPYFRTQSSGSLLSRKFKSFRSTSGRATTGLNTPEEPKGILPDTPHVINDDSAFPQAINTTQQSKDATPESMLWNHPFKLEQKLSAISSQDLPSNNTHNKLRSSENSRANSTSTLEGNEKKKPEFMPDLLEQIQESYKQQYMNTSSLKYLTKRLPVTKIIKASSCPIIRVKSATLVLVHLWKEGSCGGRVLFSTLLPPSHVDNETVSGGKENSKPPDDEEVDLQAVDDDKLGKYDLIDGELGSRLNRRQIFEQLEENLPYWFAKALFRDIKTVEEQPKLNFLIMPWSSVGGSEAAGNENKKKFISASDTTESSGNDSSDSSLGNGNEAVSPSTQQQFHNMLKFGRPKTSEQELNPTDLPRISEANVKLVAPGMIRVKKIKLYVADRFETKTPEMKAKMEPSLWLDLLCRGQVLDNDMTLNTVRTLYWKSQGDIVLEYRRKVHNSPLVHEVNGNEGK
binds | binds | Myosin tail region-interacting protein MTI1 (protein, UniProt P47068 1-1157) MSEPEVPFKVVAQFPYKSDYEDDLNFEKDQEIIVTSVEDAEWYFGEYQDSNGDVIEGIFPKSFVAVQGSEVGKEAESSPNTGSTEQRTIQPEVEQKDLPEPISPETKKETLSGPVPVPAATVPVPAATVPVPAATAVSAQVQHDSSSGNGERKVPMDSPKLKARLSMFNQDITEQVPLPKSTHLDLENIPVKKTIVADAPKYYVPPGIPTNDTSNLERKKSLKENEKKIVPEPINRAQVESGRIETENDQLKKDLPQMSLKERIALLQEQQRLQAAREEELLRKKAKLEQEHERSAVNKNEPYTETEEAEENEKTEPKPEFTPETEHNEEPQMELLAHKEITKTSREADEGTNDIEKEQFLDEYTKENQKVEESQADEARGENVAEESEIGYGHEDREGDNDEEKEEEDSEENRRAALRERMAKLSGASRFGAPVGFNPFGMASGVGNKPSEEPKKKQHKEKEEEEPEQLQELPRAIPVMPFVDPSSNPFFRKSNLSEKNQPTETKTLDPHATTEHEQKQEHGTHAYHNLAAVDNAHPEYSDHDSDEDTDDHEFEDANDGLRKHSMVEQAFQIGNNESENVNSGEKIYPQEPPISHRTAEVSHDIENSSQNTTGNVLPVSSPQTRVARNGSINSLTKSISGENRRKSINEYHDTVSTNSSALTETAQDISMAAPAAPVLSKVSHPEDKVPPHPVPSAPSAPPVPSAPSVPSAPPVPPAPPALSAPSVPPVPPVPPVSSAPPALSAPSIPPVPPTPPAPPAPPAPLALPKHNEVEEHVKSSAPLPPVSEEYHPMPNTAPPLPRAPPVPPATFEFDSEPTATHSHTAPSPPPHQNVTASTPSMMSTQQRVPTSVLSGAEKESRTLPPHVPSLTNRPVDSFHESDTTPKVASIRRSTTHDVGEISNNVKIEFNAQERWWINKSAPPAISNLKLNFLMEIDDHFISKRLHQKWVVRDFYFLFENYSQLRFSLTFNSTSPEKTVTTLQERFPSPVETQSARILDEYAQRFNAKVVEKSHSLINSHIGAKNFVSQIVSEFKDEVIQPIGARTFGATILSYKPEEGIEQLMKSLQKIKPGDILVIRKAKFEAHKKIGKNEIINVGMDSAAPYSSVVTDYDFTKNKFRVIENHEGKIIQNSYKLSHMKSGKLKVFRIVARGYVGW
binds | binds | Iron sulfur cluster assembly protein 2, mitochondrial (protein, UniProt Q12056 27-156) YHPKVIDHYTNPRNVGSMDKSLANVGTGIVGAPACGDVIKLQIQVNDKSGIIENVKFKTFGCGSAIASSSYMTELVRGMSLDEAVKIKNTEIAKELSLPPVKLHCSMLAEDAIKAAIKDYKTKRNPSVLH
binds | binds | Repressible alkaline phosphatase;Soluble alkaline phosphatase (protein, UniProt P11491 1-566) MMTHTLPSEQTRLVPGSDSSSRPKKRRISKRSKIIVSTVVCIGLLLVLVQLAFPSSFALRSASHKKKNVIFFVTDGMGPASLSMARSFNQHVNDLPIDDILTLDEHFIGSSRTRSSDSLVTDSAAGATAFACALKSYNGAIGVDPHHRPCGTVLEAAKLAGYLTGLVVTTRITDATPASFSSHVDYRWQEDLIATHQLGEYPLGRVVDLLMGGGRSHFYPQGEKASPYGHHGARKDGRDLIDEAQSNGWQYVGDRKNFDSLLKSHGENVTLPFLGLFADNDIPFEIDRDEKEYPSLKEQVKVALGALEKASNEDKDSNGFFLMVEGSRIDHAGHQNDPASQVREVLAFDEAFQYVLEFAENSDTETVLVSTSDHETGGLVTSRQVTASYPQYVWYPQVLANATHSGEFLKRKLVDFVHEHKGASSKIENFIKHEILEKDLGIYDYTDSDLETLIHLDDNANAIQDKLNDMVSFRAQIGWTTHGHSAVDVNIYAYANKKATWSYVLNNLQGNHENTEVGQFLENFLELNLNEVTDLIRDTKHTSDFDATEIASEVQHYDEYYHELTN

These are yes or no findings as the source states them, for the method shown. In cells and extracts the contact can be indirect. Here binding means that the protein was enriched with, or labelled near, the bait; the list need not be complete. For part of these data: Where a sequence is shown, tags or fusion partners need not be part of it.
